Screen size: about 410,000 compounds; about 18,000 (4.4%) were called active. The shares of active, inactive and inconclusive entries below differ from those in the screen. No stated cut-off is given here; in the data, active means activity change below about -60%; inconclusive means no clear call, values can overlap the other calls; inactive means above about -39%.
Test: qHTS Assay for inhibitors of the human cytomegalovirus (HCMV)
Settings: HFF cells, HCMV-luciferase reporter, 72 h; at 57.5 µM; hits give low values
In short: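 Luciferase read-out from HCMV-luciferase-infected HFFs (MOI 1 PFU/cell) 72 h post infection at 37C; compounds added after 16 h cell attachment; activity normalized between buffer-only basal and Salinomycin (10uM) inhibitor controls.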
On the % scale 0 is the no-effect control and ±100 the full control effect.

| Structure (SMILES) | activity change, negative = inhibition |
| --- | --- |
| O=C(c1ccc(CSc2nc3ccncc3[nH]2)cc1)N1CCN(c2cccc(Cl)c2)CC1 | active: -89.6% |
| O=C1Nc2cc(C(=O)N3CCOCC3)ccc2S/C1=C\c1ccccc1 | inconclusive: -50.5% |
| Cc1ccc(-n2ncc3c(NCc4cccnc4)ncnc32)c(C)c1 | inconclusive: -58% |
| Cc1ccc(S(=O)(=O)NC(C)(C)CN2CCc3ccccc3C2)cc1 | inactive: 31% |
| Cn1c(O)c(C=Nc2ccccc2)c(=O)n(C)c1=O | inconclusive: -43.3% |
| Cc1ccc(-c2noc(-c3ccc(N4CCCC4)c([N+](=O)[O-])c3)n2)cc1 | inconclusive: -56.5% |
| CCOc1ccc(CN(CCc2ccc3c(c2)OCO3)Cc2ccc(OC)c(Br)c2)cc1 | inconclusive: -51.6% |
| COc1ccccc1N(C)S(=O)(=O)c1ccc(C(=O)NC2CCCCC2)cc1 | inconclusive: -50.6% |
| COc1ccc(NC(=O)C(NC(=O)CC2NC(=O)NC2=O)c2ccccc2)cc1 (stereo not given) | inconclusive: -56.6% |
| CN(C)/C=C/C(=O)c1ccc(N2CCN(c3ncc(C(F)(F)F)cc3Cl)CC2)cc1 | active: -108% |
| CCN(CC(=O)Nc1ccc(NC(C)=O)cc1)C(=O)c1ccccc1Sc1ccccc1C#N | inconclusive: -43.8% |
| Cc1ccoc1C(=O)N1CCCC(CCC(=O)N2CCN(c3ccccn3)CC2)C1 (stereo not given) | inconclusive: -43.2% |
| Cc1ccc(NC(=O)Cc2cc(C(=O)O)c3ccccc3n2)c(C)c1 | inconclusive: -50.8% |
| CC(=O)Nc1ccc(S(=O)(=O)Nc2cccc(-c3cn4c(n3)SCC4)c2)cc1 | inactive: 25% |
| Cc1c(NC(=O)/C(C#N)=C/c2ccc(-c3ccccc3Cl)o2)c(=O)n(-c2ccccc2)n1C | inconclusive: -50.4% |
| COc1ccc(CNC(=S)Nc2cc(OC)ccc2OC)cc1 | inconclusive: -54.1% |
| CCOC(=O)c1sc2nc(C)nc(NCc3cccnc3)c2c1C | inconclusive: -45% |
| CCOc1c(Cl)cc(CNc2ccc3[nH]c(=O)[nH]c3c2)cc1OC | inconclusive: -48% |
| COc1cccc(NC(=O)CSc2nc3ccccc3c(=O)n2C)c1 | inconclusive: -56.6% |
| COc1cc(-c2noc(C)c2/C=C/c2ccc(N)cc2)cc(OC)c1OC | active: -83.3% |
| CC(C(=O)c1c[nH]c2ccccc12)N1CCc2ccccc2C1 (stereo not given) | inconclusive: -43% |
| COc1ccc(Br)cc1CN(C)CC(=O)NCc1ccc(F)cc1 | inactive: -29.6% |
| CC1(C)CC(NNCCC#N)=CC(=[N+]2CCCC2)C1 | inconclusive: -52.5% |
| Nc1nc(Nc2cccc(F)c2)nc2ccccc12 | inactive: 102% |
| O=C(CCC(=O)N(CC(=O)NC1CCCCC1)CC1CCCO1)Nc1nccs1 (stereo not given) | inconclusive: -49.1% |
| CCOc1ccc(N2C(=O)NC(=O)/C(=C\c3ccc(N4CCCCC4)o3)C2=O)cc1 | inactive: 2.79% |
| C[C@H](CO)N1C[C@H](C)[C@H](CN(C)S(C)(=O)=O)OCc2cnnn2CCCC1=O | inactive: -1.17% |
| O=c1ccc(-c2ccc(S(=O)(=O)NCc3cccc(Br)c3)s2)n[nH]1 | inconclusive: -43.7% |

| Structure (SMILES) | activity change, negative = inhibition |
| --- | --- |
| Cc1[nH]c(=O)c(C(=O)/C=C/c2ccccc2F)c2c1CCCC2 | active: -102% |
| CC(C)(C)NC(=O)C(c1ccc(F)cc1)N(CC1CCCO1)C(=O)CCC(=O)Nc1ccccn1 (stereo not given) | inconclusive: -47.7% |
| Cc1noc(C)c1S(=O)(=O)N1CCCC1C(=O)O (stereo not given) | inactive: 2.56% |
| O=C1CCC/C=C/C[C@H](CC(=O)N(CCO)Cc2ccccc2)C(=O)N[C@@H](Cc2ccccc2)CO1 | inactive: 3.28% |
| CCc1cccc(NC(=O)c2ccc3c(c2)N(Cc2cccc(Cl)c2)C(=O)c2ccccc2S3=O)c1 (stereo not given) | inactive: -7.5% |
| CCOC(=O)c1c(C)[nH]c(C)c1S(=O)(=O)N1CCN(c2cc(Cl)ccc2C)CC1 | active: -89.6% |
| O=C(c1cc(-c2ccc(Cl)cc2)n[nH]1)N1CCN(S(=O)(=O)c2ccc(Br)s2)CC1 | inconclusive: 0% |
| CCOc1cccc2sc(N(CCCN(C)C)C(=O)c3ccc(S(=O)(=O)N(C)Cc4ccccc4)cc3)nc12 | inconclusive: -54.1% |
| O=[N+]([O-])c1ccc(C[n+]2ccc(Cc3ccccc3)cc2)cc1 | active: -73.5% |
| Cc1ccc(Nc2c3c(nc4ccccc24)CCC3)cc1 | active: -74.2% |
| COc1ccc(NS(=O)(=O)c2cc(NC(=O)c3cnc(C)cn3)ccc2N2CCCCC2)cc1 | active: -73.8% |
| O=C(NCCN1CCOCC1)c1cnn2c(-c3ccccc3)cc(-c3ccccc3)nc12 | inactive: 9.79% |
| COc1ccc(-c2noc(N3CCC(C(=O)N4CCN(c5cccc(OC)c5)CC4)CC3)n2)cc1 | active: -83.7% |
| CSc1ncnc2c1ccn2CC(=O)Nc1ccc(C)c(C)c1 | inconclusive: -41.5% |
| CC(=O)Oc1c(I)cc(I)cc1C(=O)Nc1ccc(Cl)cc1 | active: -99% |
| CCOc1ccc(N/C(N)=N/c2nc(CSc3nnc(C)s3)cc(=O)[nH]2)cc1 | inconclusive: 0% |
| CN(CC(=O)NNC(=O)CNC(=O)c1ccccc1Cl)S(=O)(=O)c1ccc(Cl)cc1 | inconclusive: -50.2% |
| Cc1ccc(CSC2=NC(C)(C)Nc3ccccc32)c(C)c1 | inactive: -9.4% |
| Cc1c(CCC(=O)O)c(=O)oc2cc3oc4c(c3cc12)CCCC4 | inconclusive: -57.9% |
| CC(=O)NC(Cc1ccc(N(CCCl)CCCl)cc1)C(=O)NC(C(=O)O)C(C)C (stereo not given) | inactive: 3.85% |
| COCCN(C(=S)Nc1ccc(C)c(C)c1)C(C)c1ccco1 (stereo not given) | inconclusive: -43.2% |
| COC(=O)Nc1nc2ccc(SC(C)C)cc2[nH]1 | active: -81.7% |
| Clc1ccc2nc(-c3ccccc3)cn2c1 | inconclusive: -40.4% |
| CCOC(=O)Cc1n[nH]c(=O)c2ccccc12 | inactive: -26.5% |
| Cc1cc(C)c(C#N)c(N2CCC(C(N)=O)CC2)n1 | inconclusive: -51.2% |
| Cc1cccc(C(c2sc3nc(-c4ccco4)nn3c2O)N2CCOCC2)c1 (stereo not given) | inactive: 15.4% |
| CC(C)(C)n1nnnc1C(c1ccccc1F)N(Cc1ccco1)CC1CCCO1 (stereo not given) | inconclusive: -47.4% |

Ordered by length of the SMILES (largest number first): 5 of the compounds above

| Structure (SMILES) | activity change, negative = inhibition |
| --- | --- |
| O=C(NCCN1CCOCC1)c1cnn2c(-c3ccccc3)cc(-c3ccccc3)nc12 | inactive: 9.79% |
| Cc1ccc(CSC2=NC(C)(C)Nc3ccccc32)c(C)c1 | inactive: -9.4% |
| Cc1cc(C)c(C#N)c(N2CCC(C(N)=O)CC2)n1 | inconclusive: -51.2% |
| Cc1ccc(Nc2c3c(nc4ccccc24)CCC3)cc1 | active: -74.2% |
| Clc1ccc2nc(-c3ccccc3)cn2c1 | inconclusive: -40.4% |

Reference: PubChem BioAssay AID1259415 (National Center for Advancing Translational Sciences (NCATS), 2018)
